Values from PubChem BioAssay AID1259254 (NCATS, 2017).
The deposit covers about 59,000 reagents; this is an unselected part. About 1,550 of them (2.6%) were called active. 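G2 share is only a proxy for re-replication; each gene was hit by three separate siRNAs, and active genes were retested.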 Entries without a mark were called inactive. The numbers tell different reagents against one gene apart. Not all columns of the deposit are shown. The record does not give: the amount of reagent.

Assay: 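Gene knock-downs that lead to re-replication, shown by excess G2 DNA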 (primary screen)
System: human HCT116 colorectal cancer cells
Reagent: single siRNA against human genes
Timing: 3 days
Detection: 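Nuclei stained with Hoechst and imaged; cell-cycle phase assigned by DNA content; G2 share scaled per plate, non-targeting siRNA 0%, GMNN siRNA 100%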
Direction: G2 robust z-score and G2 cells, % of GMNN control: higher = more G2 cells, more excess DNA replication
Call rule: 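Active siRNAs have a G2 robust z of 5 or more median absolute deviations over the median, which in these data means about 38% or higher of GMNN control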

DSE #1 → G2 robust z-score = -0.351; G2 cells, % of GMNN control = 0.501
DSE #2 → G2 robust z-score = -0.0912; G2 cells, % of GMNN control = 2.33
DSE #3 → G2 robust z-score = -0.483; G2 cells, % of GMNN control = -0.433
NAPG #1 → G2 robust z-score = 0.118; G2 cells, % of GMNN control = 3.8
NAPG #2 → G2 robust z-score = 0.277; G2 cells, % of GMNN control = 4.91
NAPG #3 → G2 robust z-score = 0.439; G2 cells, % of GMNN control = 6.06
ARMH1 #1 → G2 robust z-score = 1.33; G2 cells, % of GMNN control = 12.3
ARMH1 #2 → G2 robust z-score = 5.13 (active); G2 cells, % of GMNN control = 39.1
ARMH1 #3 → G2 robust z-score = 0.185; G2 cells, % of GMNN control = 4.27

Continued; the last 2 above are carried over.
ARMH1 #2 → G2 robust z-score = 5.13 (active); G2 cells, % of GMNN control = 39.1
ARMH1 #3 → G2 robust z-score = 0.185; G2 cells, % of GMNN control = 4.27
PALM3 #1 → G2 robust z-score = 4.44; G2 cells, % of GMNN control = 34.2
PALM3 #2 → G2 robust z-score = 2.34; G2 cells, % of GMNN control = 19.4
PALM3 #3 → G2 robust z-score = 1.81; G2 cells, % of GMNN control = 15.7
RPL37P23 #1 → G2 robust z-score = 0.944; G2 cells, % of GMNN control = 9.61
RPL37P23 #2 → G2 robust z-score = 0.0829; G2 cells, % of GMNN control = 3.55
RPL37P23 #3 → G2 robust z-score = 0.229; G2 cells, % of GMNN control = 4.58
KRT84 #1 → G2 robust z-score = -0.905; G2 cells, % of GMNN control = -3.4
KRT84 #2 → G2 robust z-score = -0.723; G2 cells, % of GMNN control = -2.12
KRT84 #3 → G2 robust z-score = -0.661; G2 cells, % of GMNN control = -1.68
FRMD5 #1 → G2 robust z-score = -0.922; G2 cells, % of GMNN control = -3.52
FRMD5 #2 → G2 robust z-score = -0.773; G2 cells, % of GMNN control = -2.47
FRMD5 #3 → G2 robust z-score = 0.38; G2 cells, % of GMNN control = 5.64
SERPINA13P #1 → G2 robust z-score = 0.846; G2 cells, % of GMNN control = 8.92
SERPINA13P #2 → G2 robust z-score = 0.881; G2 cells, % of GMNN control = 9.16
SERPINA13P #3 → G2 robust z-score = 1.57; G2 cells, % of GMNN control = 14
